From PubChem BioAssay AID1347423 (Functional Genomics Laboratory (NCATS/FGL), 2020)
Out of some 52,000 sequences screened, about 210 (0.4%) were called active.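 How the source made its calls: active means gene whose silencing raises cell survival under the drug, median off-target-corrected z-score across its silencing RNAs 2 or more; inactive means the rest.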 This is one part of the list.

Assay: Resistance to Poly (ADP-Ribose) Polymerase inhibitor: Gene Identification via Genome-wide siRNA Screen
Details: mouse BRCA2 R2336H ES cells, olaparib, CellTiter-Glo viability; stronger effect = higher value
How it was run: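 Genome-wide siRNA screen (3 siRNAs/gene, 20 nM) in mouse ES cells carrying hypomorphic BRCA2 R2336H; olaparib 500 nM added 48 h post-transfection, CellTiter-Glo viability 72 h later. Normalized to plate-median negative control; MAD z-scores, gene median, seed-adjusted.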

Row | Sequence | z-score
1 | GCCACCAACUCAGGUAGAATT against Nrip2 | inactive: 1.2
2 | GGAAGAUGGGAAGAAAUUCTT against Eif3s4 | inactive: -2.14
3 | GGCCUUGUACUUACACAAGTT against Rspondin | inactive: 0.508
4 | CCAUGAAGAUAUCCUACACTT against Olfr77 | inactive: -0.285
5 | GGAUGUACAUUCUACCUAUTT against Bap1 | inactive: 2.37
6 | GGAGUUGCCCUCAUCUUCATT against Casp6 | inactive: -0.427
7 | GGAAGCAUGCAAUGAUAUUTT against 4.93E+26 | inactive: -0.275
8 | GUUCUAUGUCCGGGAGCCATT against Ndufc1 | inactive: -2.39
9 | GGACCAAUUUUUUCAGUUGTT against Rhag | inactive: -0.771
10 | GCAGGUUGCACCAUGUAGATT against 2900084M01Rik | inactive: 1.2
11 | GCUCUACAUGAAAACACUGTT against AU041707 | inactive: -0.539
12 | GCUGUUCAUUGAGUAUCCCTT against 6430527G18Rik | inactive: 0.0522
13 | GGGAUUGGUGAAGAAAAAATT against Pcoln3 | inactive: -1.49
14 | GGUGCUAGAUGAGCUGACCTT against Krt1-16 | inactive: -0.398
15 | GCCACCACUUAGUUUAACATT against Cpa4 | inactive: 0.597
16 | GGCUAAGAGACGAAACACUTT against Rpl37 | inactive: -3.35
17 | GGGUGAAUUUCAAAAGCUATT against D6Ertd538e | inactive: -1.18
18 | GACAUUUGUAUGCAGUCAUTT against V1ri9 | inactive: 0.237
19 | GCCCAAAAGACCUCAUAUUTT against Lef1 | inactive: -0.891
20 | CCUAUUGUGCAAAUGAACCTT against Cd164 | inactive: -0.152
21 | GGCCAGCAGACUAUUUAUUTT against 1110021N07Rik | inactive: -1.57
22 | CCUCAGCAAAUAUAUGGCATT against 1700008F21Rik | inactive: 1.08
23 | GCUAGUUACAUCAUAUGCUTT against Gpr171 | inactive: 0.694
24 | GCUGAGACAUGUGGAGUAUTT against 4931429L15Rik | inactive: -2.9
25 | GGUCAGGUCUUUUUAUACATT against Zfp354a | inactive: 2.18
26 | GGCUCUGGGUCAACAUUUGTT against 2310011J03Rik | inactive: -0.427
27 | GGCAGAAACGUGUCACCAUTT against Tsx | inactive: -1.42
28 | CCUACAGAGUACAGAUUAUTT against Atp6v0d1 | inactive: -2.2
29 | GGACCUGACUCAGCUCUUUTT against Dpp7 | inactive: -0.554

In a second layout: results already given
GGCCUUGUACUUACACAAGTT against Rspondin
  z-score: inactive: 0.508
CCAUGAAGAUAUCCUACACTT against Olfr77
  z-score: inactive: -0.285
